From PMC10400037, “Novel players in organogenesis and flavonoid biosynthesis in cucumber glandular trichomes”
For at least one entry, the source does not settle the construct or the ends of the probe. The comparison behind a weaker result is the experiment's own reference, which may not be listed here. Where a protein sequence is shown, tags need not be part of it.

Molecular target: T1, MBP-CsTBH (TINY BRANCHED HAIR, HD-ZIP) (Cucumis sativus) (UniProt A0A0A0LED8)
T1 sequence (looked up, limits assumed): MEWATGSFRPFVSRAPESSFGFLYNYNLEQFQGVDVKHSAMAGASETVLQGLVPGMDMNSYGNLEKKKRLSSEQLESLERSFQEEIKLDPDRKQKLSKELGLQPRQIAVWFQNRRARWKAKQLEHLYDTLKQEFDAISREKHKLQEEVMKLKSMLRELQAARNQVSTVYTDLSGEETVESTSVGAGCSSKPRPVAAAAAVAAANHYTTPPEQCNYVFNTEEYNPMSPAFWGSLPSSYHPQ
Assay: EMSA
Conditions: EMSA kit (Beyotime GS009) reaction buffer, room temperature, 6% native PAGE; salt and pH not stated; recombinant protein

## ATTTATGTTTACAATAATGACAATAAATG (double strand) [CsBZ1 promoter probe]
  binding result: binds more weakly
